# Measured values as given in article PMC12040169 (PLOS Biology, 2025).
# The list shows a part of the results.
# Test system: T1, CTL2-GFP (C. trachomatis L2/434/Bu, GFP-expressing)
# T1 construct: L2/434/Bu, GFP-expressing
# Parameters: species or system HeLa; Intracellular C. trachomatis growth in HeLa cells, bulk GFP fluorescence relative to DMSO
# Conditions: bulk GFP, single well; 28.5 h, 10 µM; inhibitor
row,Structure (SMILES),% of control remaining [%]
1,FC(F)(F)c1cccc(SCc2ccc(Cl)cc2)n1 [CBK107197],113.415
2,CN(C)C(=O)CO[C@@H]1CO[C@H]2[C@@H]1OC[C@@H]2Nc1nccc(-c2cccc(F)c2)n1 [CBK289533],99.5367
3,COCCNc1cc(-c2cccc(F)c2C(N)=O)c2cc[nH]c2n1 [CBK307682],97.9745
4,Cc1ccc(S(=O)(=O)NCC(=O)Nc2cnc(-c3cccc(C)c3)c(-c3ccc(N)cc3)n2)cc1 [CBK037600],133.53
5,O=C(CCc1ccc(S(=O)(=O)NC2CC2)cc1)N1CCCC1c1ccncc1 (stereo not drawn) [CBK296673],120.605
6,CC1(C)CC(CC(=O)NN)(c2ccccc2)CCO1 (stereo not drawn) [CBK261358C],100
7,Oc1ccc(Oc2ccc(Oc3ccc(O)cc3)cc2)cc1 [CBK033968],109.395
8,Cc1nc2ccccc2c(C(=O)O)c1-c1ccccc1 [CBK274187],118.95
9,CCc1nn(CC(=O)N(CC)CC)c(=O)c2cc3sccc3n12 [CBK284054],144.801
10,COc1ccc(-c2cn[nH]c2-c2ccc(OCCN3CCOCC3)cc2O)cc1 [CBK288112],145.267
11,O=C(Nc1cc(Oc2ccc(F)cc2)cc(Oc2cccnc2)c1)c1nn2c(C(F)(F)F)cc(-c3cccs3)nc2c1Cl [CBK262568],100
12,CCC1Oc2ccc(C(O)c3ccco3)cc2N(Cc2cccc(OC)c2)C1=O (stereo not drawn) [CBK286190],153.574
13,Cc1cccc(NC(=O)C(Cc2ccccc2)C(=O)Nc2cccc(C)c2)c1 [CBK266899],172.703
14,OCCN(CCO)c1nccnc1-c1ccccc1F [CBK036610],156.98
15,CC(=O)N1CCN([C@H]2[C@@H]3OC[C@@H](O3)[C@@H](NC(=O)NC3CCCCC3)[C@@H]2O)CC1 [CBK288810],126.173
16,CC(C)c1nnc(NC(=O)CC2CCN(C(=O)C3(c4ccccc4)CCCC3)CC2)s1 [CBK285905],104.93
17,COC(=O)c1cccc(OCCn2c(=O)c(C#N)cn(C3CC3)c2=O)c1 [CBK305990],126.547
18,CCn1cc(NC(=O)CC(C)(O)c2ccccc2)ccc1=O (stereo not drawn) [CBK304507],126.948
19,COCC(O)CN(C)c1nc(-c2ccncc2)nc2ccccc12 (stereo not drawn) [CBK305170],119.317
20,O=C(O)CN(c1ccc([N+](=O)[O-])cc1)S(=O)(=O)c1ccccc1 [CBK263782],125.3
21,Nc1nc(C2CC(O)C2)cc(N2CCC(Oc3ccccc3Cl)CC2)n1 (stereo not drawn) [CBK307392],82.3056
22,O=C(CC1C(=O)N(Cc2ccccc2)C(=S)N1Cc1ccccc1)Nc1ccccc1 (stereo not drawn) [CBK263871],96.5364
23,Cc1c(C(=O)N2CCCC(c3cc4ncccc4[nH]3)C2)cnn1C (stereo not drawn) [CBK283420],158.643
24,COc1ccccc1CN(C)C(C)C(=O)Nc1sccc1C(N)=O (stereo not drawn) [CBK306466],105.599
25,COCc1cccc(Nc2ncnc3c2cnn3CCC#N)c1 [CBK305983],118.11
26,Cn1cc(C(=O)CCC(=O)NC2CCCN(c3ncccn3)C2)cn1 (stereo not drawn) [CBK305480],151.903

row,Structure (SMILES),% of control remaining [%]
1,Cc1csc(C(Cc2cccs2)NC(=O)CN2CCCC2=O)n1 (stereo not drawn) [CBK284691],109.775
2,N#CC(NS(=O)(=O)c1ccc(OC(F)(F)F)cc1)c1ccccc1 (stereo not drawn) [CBK043714],126.339
3,Cc1nn(C)cc1S(=O)(=O)N1CCCC(c2cccc(Cc3ccc(Cl)cc3)n2)C1 (stereo not drawn) [CBK286506],100.18
4,COc1ccccc1CNc1ncnc2[nH]ncc12 [CBK288100],140.951
5,COc1ccc2[nH]cc(CCNC(=O)c3ccccn3)c2c1 [CBK115866],107.104
6,C(=N\c1cccc2c(/N=C/c3c[nH]c4ccccc34)cccc12)/c1c[nH]c2ccccc12 [CBK260887],111.212
7,CCCCOc1ccc(Oc2ncc(C(F)(F)F)cc2Cl)cc1 [CBK161629],127.35
8,O=c1c2c3c(sc2nc(SCc2nc4ccccc4[nH]2)n1Cc1ccco1)CCC3 [CBK268306],104.14
9,Oc1nc(O)c2c3c(n(CCn4ccnc4)c2n1)CCCC3 [CBK024380B],114.516
10,CS(=O)(=O)N1CCC(C(=O)NC(c2ccccc2)c2cnccn2)CC1 (stereo not drawn) [CBK059901],87.672
11,CC(=O)Nc1cccc(-c2ccc(Nc3cccnc3)nc2)c1 [CBK037703],192.721
12,CS(=O)(=O)N1CC2(CCN(CCc3ccc(F)cc3)CC2)c2ccccc21 [CBK084103],100
13,O=C(c1ccc(-c2ccoc2)nc1)N1CCCC1 [CBK156284],116.48
14,Cc1ccc2nc(-c3ccncc3)cc(C(=O)Nc3ccc(C(F)(F)F)cc3)c2c1 [CBK267732],114.158
15,COc1ccc(OC(=O)c2cccc(F)c2)c(C(C)=O)c1 [CBK088044],106.807
16,CCCC/C=C/c1cnc(N)c(-c2ccc(CCC(=O)O)cc2)n1 [CBK064127],104.873
17,Cc1ccc(CNC(Cc2c[nH]c3ccccc23)C(=O)O)cc1 (stereo not drawn) [CBK287145],99.6432
18,CCOc1ccccc1Cn1c2ccccc2c2nc3ccccc3nc21 [CBK266323],139.797
19,O=C(Cc1c[nH]cn1)N1CCC2(CCN(Cc3ccccc3)C2)C1 (stereo not drawn) [CBK137147],147.879
20,Cc1cc(C(=O)N2CCC(Oc3nccn(Cc4ccc(S(C)(=O)=O)cc4)c3=O)CC2)ccc1Cl [CBK161883],109.042
21,N#CCCNS(=O)(=O)c1ccc(OC(F)(F)F)cc1 [CBK043560],157.837
22,Cc1c(C(=O)N2CC(n3cc(C(C)O)nn3)C2)sc2ccc(F)cc12 (stereo not drawn) [CBK305446],136.861
23,Cc1ncsc1C(=O)N1CCCCC1c1nc2ccccc2[nH]1 (stereo not drawn) [CBK283531],117.787
24,O=CN1CCc2c([nH]c3ccc(F)cc23)C12CCN(Cc1cccc(Oc3ccc(F)cc3)c1)CC2 [CBK040388],113.073
25,CCCn1c(CN2CCN(CCO)CC2)nc2ccccc21 [CBK269363],112.284
26,Cc1sc(NC(=S)NC(=O)Cc2cccc3ccccc23)c(C(N)=O)c1C [CBK266344],247.694

# A draw from above in order of SMILES length, low to high.
row,Structure (SMILES),% of control remaining [%]
13,O=C(c1ccc(-c2ccoc2)nc1)N1CCCC1 [CBK156284],116.48
11,CC(=O)Nc1cccc(-c2ccc(Nc3cccnc3)nc2)c1 [CBK037703],192.721
3,Cc1nn(C)cc1S(=O)(=O)N1CCCC(c2cccc(Cc3ccc(Cl)cc3)n2)C1 (stereo not drawn) [CBK286506],100.18

# (further entries)

row,Structure (SMILES),% of control remaining [%]
1,COc1ccc([N+](=O)[O-])cc1-c1ccc(-c2nc(-c3ccccc3)c(-c3ccccc3)[nH]2)o1 [CBK262497],124.045
2,Nc1ncc(-c2cccc(OC(F)(F)F)c2)nc1N1CCN(CCO)CC1 [CBK063435],139.534
3,Cc1cc(C)n(CCCN(C)Cc2c(C)nc3ccccn23)n1 [CBK281901],111.203
4,Brc1ccc(-n2c(SC/C=C/c3ccccc3)nnc2-c2ccncc2)cc1 [CBK266257],110.01
5,Cc1ccc2c(c1)CC(=O)NC21CCN(C(=O)C2CC2C(=O)O)CC1 (stereo not drawn) [CBK047258],93.9899
6,CNc1ccc(OC(=O)c2ccco2)cc1 [CBK010779],110.446
7,N#Cc1c(NC(=O)CN2CCc3ccccc3C2)sc2c1CCCC2 [CBK269126],105.95
8,Cc1cccc(-c2ccc3c(c2)C(=O)N2CC[C@H](NC(=O)N4CCOCC4)[C@H]2C(=O)N3)c1C [CBK289347],124.145
9,Cc1cc(COc2nc3ccccc3nc2N2CCCC2C(=O)OC(C)(C)C)no1 (stereo not drawn) [CBK173753],116.221
10,O=C(NCc1csc(-c2ccccc2)n1)C1CC=CCC1 (stereo not drawn) [CBK092348],120.311
11,CCNC(=O)c1ccc(-c2ccc(OC(F)(F)F)cc2)nc1 [CBK156230],118.577
12,O=C(Nc1cccnc1)C1c2ccccc2Oc2ccccc21 [CBK263129],109.133
13,c1ccc(Oc2cccc(OCCCCN3CCNCC3)c2)cc1 [CBK266027G],212.717
14,O=C(COc1ccccc1)Nc1ccc2n(c1=O)C[C@H]1C[C@@H]2CN(C(=O)c2ccccc2)C1 [CBK289079],148.644
15,COc1ccccc1CNC(=O)CCn1ccc2ccncc21 [CBK282229],137.385
16,c1ccc2nc(N3CCCC3)c(OCc3ccsc3)nc2c1 [CBK115819],115.16
17,COc1ccc(C)cc1S(=O)(=O)n1ccc2c(CN3CCC(N)CC3)cccc21 [CBK113312T],67.575
18,Cc1ccccc1OC(C)C(=O)NCCCN1CCOCC1 (stereo not drawn) [CBK268628],115.067
19,COC(=O)C1CC2CCC1(C)CC21NC(=O)c2ccccc2N1 (stereo not drawn) [CBK284440],78.5586
20,Cc1nn(C)c(Cl)c1S(=O)(=O)Nc1cccc(-c2cnco2)c1 [CBK067107],79.072
21,O=C(CN1CCOCC1)Nc1sc2c(c1C(=O)Nc1ccc(Cl)cc1)CCC2 [CBK265056],123.931
22,O=C(O)C1CCCN1C(=O)c1ccc(C#CC2(O)CCCCC2)cc1 (stereo not drawn) [CBK287022],120.766
23,CCCNS(=O)(=O)c1cc2c3c(c1)c(C)cc(=O)n3CCC2 [CBK307547],148.358
24,CCN(CC)CC(O)Cn1c(-c2ccccc2Cl)nc2ccccc21 (stereo not drawn) [CBK262495],100
25,CCCCOc1ccc(S(=O)(=O)N2CCN(c3cccc(C)c3C)CC2)cc1 [CBK099293],92.7762
26,CCOC(=O)c1cnc(SC)nc1N1CCOCC1 [CBK018971],114.684

# Already shown: an excerpt of the list.
row,Structure (SMILES),% of control remaining [%]
13,c1ccc(Oc2cccc(OCCCCN3CCNCC3)c2)cc1 [CBK266027G],212.717
14,O=C(COc1ccccc1)Nc1ccc2n(c1=O)C[C@H]1C[C@@H]2CN(C(=O)c2ccccc2)C1 [CBK289079],148.644
